The values below come from paper PMC9462472.

The chains behind the UniProt entries cited, without tags or fusion partners.
UniProt Q62407: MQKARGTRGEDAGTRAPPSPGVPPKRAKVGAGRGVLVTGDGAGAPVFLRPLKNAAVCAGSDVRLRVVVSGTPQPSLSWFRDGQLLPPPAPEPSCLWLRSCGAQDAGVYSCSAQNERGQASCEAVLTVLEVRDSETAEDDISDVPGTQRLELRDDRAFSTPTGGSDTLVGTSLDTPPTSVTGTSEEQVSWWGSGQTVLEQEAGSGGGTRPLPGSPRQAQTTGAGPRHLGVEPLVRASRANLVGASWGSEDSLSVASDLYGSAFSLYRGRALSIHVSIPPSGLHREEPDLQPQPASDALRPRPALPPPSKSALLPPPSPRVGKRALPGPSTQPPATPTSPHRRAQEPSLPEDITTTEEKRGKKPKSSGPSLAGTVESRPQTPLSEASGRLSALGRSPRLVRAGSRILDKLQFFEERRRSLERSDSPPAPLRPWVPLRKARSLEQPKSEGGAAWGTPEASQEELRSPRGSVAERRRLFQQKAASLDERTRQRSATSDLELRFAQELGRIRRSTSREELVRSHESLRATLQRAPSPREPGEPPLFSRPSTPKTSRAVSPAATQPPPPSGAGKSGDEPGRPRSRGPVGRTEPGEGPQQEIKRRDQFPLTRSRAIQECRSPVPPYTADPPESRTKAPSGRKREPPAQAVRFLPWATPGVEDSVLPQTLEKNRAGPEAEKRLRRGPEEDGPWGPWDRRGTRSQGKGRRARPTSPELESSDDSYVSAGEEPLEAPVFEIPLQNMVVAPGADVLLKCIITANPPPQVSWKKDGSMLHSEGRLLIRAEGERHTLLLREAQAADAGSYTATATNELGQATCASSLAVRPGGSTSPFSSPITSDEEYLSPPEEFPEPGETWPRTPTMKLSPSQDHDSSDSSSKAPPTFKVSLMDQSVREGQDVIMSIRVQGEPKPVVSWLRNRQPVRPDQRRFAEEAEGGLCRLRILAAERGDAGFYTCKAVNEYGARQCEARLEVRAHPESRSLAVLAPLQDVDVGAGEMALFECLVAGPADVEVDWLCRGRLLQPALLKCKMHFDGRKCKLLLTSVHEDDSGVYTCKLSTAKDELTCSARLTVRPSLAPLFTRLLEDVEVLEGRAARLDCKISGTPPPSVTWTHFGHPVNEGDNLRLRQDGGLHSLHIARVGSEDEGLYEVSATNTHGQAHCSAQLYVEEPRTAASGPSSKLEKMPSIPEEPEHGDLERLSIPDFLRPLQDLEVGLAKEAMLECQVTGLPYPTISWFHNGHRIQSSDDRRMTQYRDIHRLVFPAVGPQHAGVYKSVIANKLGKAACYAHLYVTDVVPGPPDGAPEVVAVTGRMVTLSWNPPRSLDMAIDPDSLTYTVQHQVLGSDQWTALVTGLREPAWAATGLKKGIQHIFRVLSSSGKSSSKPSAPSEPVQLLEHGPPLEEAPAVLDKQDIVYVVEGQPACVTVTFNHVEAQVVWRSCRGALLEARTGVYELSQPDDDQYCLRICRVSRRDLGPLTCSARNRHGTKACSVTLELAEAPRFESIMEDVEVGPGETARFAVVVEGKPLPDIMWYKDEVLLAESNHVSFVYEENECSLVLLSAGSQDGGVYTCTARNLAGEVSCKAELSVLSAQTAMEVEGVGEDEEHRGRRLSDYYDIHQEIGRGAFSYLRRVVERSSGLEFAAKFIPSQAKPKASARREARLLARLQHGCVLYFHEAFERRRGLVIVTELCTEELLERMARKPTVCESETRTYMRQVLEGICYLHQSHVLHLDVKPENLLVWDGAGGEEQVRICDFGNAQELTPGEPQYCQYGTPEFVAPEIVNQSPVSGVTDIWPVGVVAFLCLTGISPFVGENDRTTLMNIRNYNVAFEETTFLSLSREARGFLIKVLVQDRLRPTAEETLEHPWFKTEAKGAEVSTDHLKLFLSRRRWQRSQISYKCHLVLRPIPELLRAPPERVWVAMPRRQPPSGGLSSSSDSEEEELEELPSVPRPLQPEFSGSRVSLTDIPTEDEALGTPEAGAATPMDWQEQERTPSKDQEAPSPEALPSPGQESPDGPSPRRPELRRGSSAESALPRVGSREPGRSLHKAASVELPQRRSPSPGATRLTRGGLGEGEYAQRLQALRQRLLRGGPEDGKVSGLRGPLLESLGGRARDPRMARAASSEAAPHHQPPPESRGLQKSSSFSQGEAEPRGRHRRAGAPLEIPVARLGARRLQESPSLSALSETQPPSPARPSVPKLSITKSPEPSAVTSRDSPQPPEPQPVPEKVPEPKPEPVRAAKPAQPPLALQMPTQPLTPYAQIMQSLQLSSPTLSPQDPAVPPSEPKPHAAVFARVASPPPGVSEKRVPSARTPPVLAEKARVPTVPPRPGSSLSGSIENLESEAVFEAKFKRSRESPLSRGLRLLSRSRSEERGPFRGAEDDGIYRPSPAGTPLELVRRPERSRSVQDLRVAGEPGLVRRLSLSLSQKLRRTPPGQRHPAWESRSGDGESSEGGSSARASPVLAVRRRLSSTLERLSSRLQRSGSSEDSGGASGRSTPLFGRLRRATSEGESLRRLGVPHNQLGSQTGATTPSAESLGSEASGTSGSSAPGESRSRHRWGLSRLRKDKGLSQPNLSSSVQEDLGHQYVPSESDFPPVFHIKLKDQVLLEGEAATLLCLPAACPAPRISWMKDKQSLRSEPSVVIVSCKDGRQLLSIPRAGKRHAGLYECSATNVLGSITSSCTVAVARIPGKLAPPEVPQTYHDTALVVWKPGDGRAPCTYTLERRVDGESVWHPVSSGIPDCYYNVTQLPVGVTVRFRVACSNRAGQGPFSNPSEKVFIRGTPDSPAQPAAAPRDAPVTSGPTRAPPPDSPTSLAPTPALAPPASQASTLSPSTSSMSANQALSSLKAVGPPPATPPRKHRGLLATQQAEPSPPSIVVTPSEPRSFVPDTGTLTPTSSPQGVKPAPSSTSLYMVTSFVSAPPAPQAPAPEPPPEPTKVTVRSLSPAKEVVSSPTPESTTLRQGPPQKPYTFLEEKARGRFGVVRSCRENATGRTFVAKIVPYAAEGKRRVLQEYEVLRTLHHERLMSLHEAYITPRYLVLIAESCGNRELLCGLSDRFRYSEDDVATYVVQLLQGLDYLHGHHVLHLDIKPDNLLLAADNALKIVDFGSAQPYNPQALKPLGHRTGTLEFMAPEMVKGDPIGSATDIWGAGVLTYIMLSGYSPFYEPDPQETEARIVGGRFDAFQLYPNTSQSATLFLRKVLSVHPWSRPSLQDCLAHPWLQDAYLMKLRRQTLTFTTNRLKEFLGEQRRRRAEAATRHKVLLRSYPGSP

Results are given in words; binding and its absence hold for the method and conditions named. Binding seen in cells or lysates may run through a third protein. Some results given as binding are weak or reduced against the parent protein; the word gives no strength.

In the experiment the target is Striated preferentially expressed protein kinase, SPEG-β isoform (mouse (endogenous in C2C12 myotubes and mouse muscle)) (UniProt Q62407). Description: co-IP; endogenous proteins in lysates of differentiated C2C12 myotubes, soleus and triceps; IP with anti-SPEG or anti-DNM2 antibody at 4°C for 12 to 24 hours, Dynabead Protein G beads, washed 3 times with co-IP buffer with 0.1% CHAPS; immunoblot. (In general: A western blot detects proteins with antibodies after separation by electrophoresis.)

B1: dynamin-2 (protein, UniProt P39054 1-870)
chain: MGNRGMEELIPLVNKLQDAFSSIGQSCHLDLPQIAVVGGQSAGKSSVLENFVGRDFLPRGSGIVTRRPLILQLIFSKTEYAEFLHCKSKKFTDFDEVRQEIEAETDRVTGTNKGISPVPINLRVYSPHVLNLTLIDLPGITKVPVGDQPPDIEYQIKDMILQFISRESSLILAVTPANMDLANSDALKLAKEVDPQGLRTIGVITKLDLMDEGTDARDVLENKLLPLRRGYIGVVNRSQKDIEGKKDIRAALAAERKFFLSHPAYRHMADRMGTPHLQKTLNQQLTNHIRESLPTLRSKLQSQLLSLEKEVEEYKNFRPDDPTRKTKALLQMVQQFGVDFEKRIEGSGDQVDTLELSGGARINRIFHERFPFELVKMEFDEKDLRREISYAIKNIHGVRTGLFTPDLAFEAIVKKQVVKLKEPCLKCVDLVIQELISTVRQCTSKLSSYPRLREETERIVTTYIREREGRTKDQILLLIDIEQSYINTNHEDFIGFANAQQRSTQLNKKRAIPNQGEILVIRRGWLTINNISLMKGGSKEYWFVLTAESLSWYKDEEEKEKKYMLPLDNLKIRDVEKGFMSNKHVFAIFNTEQRNVYKDLRQIELACDSQEDVDSWKASFLRAGVYPEKDQAENEDGAQENTFSMDPQLERQVETIRNLVDSYVAIINKSIRDLMPKTIMHLMINNTKAFIHHELLAYLYSSADQSSLMEESAEQAQRRDDMLRMYHALKEALNIIGDISTSTVSTPVPPPVDDTWLQNTSGHSPTPQRRPVSSVHPPGRPPAVRGPTPGPPLIPMPVGATSSFSAPPIPSRPGPQSVFANNDPFSAPPQIPSRPARIPPGIPPGVPSRRAPAAPSRPTIIRPAEPSLLD
For the molecule B1, the binding result was “binds”.
